Patent publication US20030100508A1, “Carbohydrate epitope mimic compounds and uses thereof” (priority 1999, published 2003)
Some results were stated once for a whole list of compounds, not compound by compound. Some compounds share one range, which may span the group rather than tell each member.

System: L2-412 antibody
Test: Competition ELISA: binding of mAb L2-412 to immobilized L2/HNK-1 glycolipids
Design: species or system rat
Conditions: highest inhibitor concentration (free peptide 2.2 mM, SO3-sugar 5 mM, phage 10^12 TUs/ml); no inhibitor = 0%
Method: FIG. 2A depicts competition of the L2-412 antibody to immobilized L2/HNK-1 glycolipids by various inhibitors: positive phage (denoted phage 15-15), negative phage (denoted neg. control phage), free peptide (denoted peptide 15-15) and SO3-sugar. L2-412 was preincubated with a stepwise 2-fold dilution series of the free peptide (starting concentration 2.2 mM), SO3-sugar (starting concentration 5 mM), positive phage and negative phage (starting concentration 10^12TUs/ml), and added to the coated glycolipid. After incubation and washing, the bound antibody was detected with HRP anti-rat antibody.
FIG. 2B depicts the percentage inhibition of L2-412 antibody to immobilized L2/HNK-1 glycolipids by various inhibitors. The percentage is calculated for the point in FIG. 2A with the highest concentration of inhibitor. […]
Microtiter plates (Nunc) were coated with the L2/HNK-1 glycolipids (50 μl, 1 μg/ml, dissolved in EtOH) and allowed to dry overnight. While blocking the wells for 2 hours with 0.5% (w/v) fatty-acid-free BSA in PBS, a limiting concentration of ^L2-412, previously determined, was pre-incubated with successive 2-fold dilutions of the inhibitor, starting at a concentration of 2.2 mM for the free peptide, 5 mM for the SO3 sugar and 10^12 positive and negative phages (the negative phages were cloned from the unbound fraction of the first round of screening). […]

**Q.** Which “inhibition of L2-412 binding to immobilized L2/HNK-1 glycolipids” value does the source give for “F L H T R L F V S D W Y H T P [phage 15-15]” here?
**A.** The value was 30-35%.

**Q.** Which “inhibition of L2-412 binding to immobilized L2/HNK-1 glycolipids” value does the source give for “SO3-GlcA-Gal-allyl [SO3-sugar, reference compound]” here?
**A.** The value was 30-35%.
